Measurements reported in PubChem BioAssay AID504808 (Drosophila RNAi Screening Center, 2011).
The screen tested about 21,000 reagents; below is an unselected part of those with a known target gene and a result. Of all reagents, 18 (0.084%) got an active call. 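Raw counts without plate normalisation, one of two replicates; the ratio scores behind the calls were not deposited.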 The numbers tell different reagents against one gene apart. The record does not give: the amount of reagent, the time to read-out.

- Test: 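Genes whose loss lifts activity of an E2F-responsive reporter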 (primary screen)
- System: Drosophila S2 cells
- Reagent: long dsRNA against Drosophila genes
- Read-out: 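Firefly luciferase driven by E2F sites, normalised to Renilla luciferase on the same minimal promoter, measured by plate reader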
- Direction: E2F firefly: higher = more E2F reporter activity; Renilla normaliser: higher = more normaliser reporter signal
- Hit rule: 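Called active if the normalised E2F reporter went up by over 50%; the cutoff is arbitrary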

| target | reagent | E2F firefly, rep 1 | Renilla normaliser, rep 1 | activity call |
| --- | --- | --- | --- | --- |
| ProRS-m (Prolyl-tRNA synthetase, mitochondrial) | 1 | 99090 | 3817 | inactive |
| Jig | 1 | 1.32e5 | 6981 | inactive |
| CG10898 | 1 | 73919 | 3203 | inactive |
| CG7512 | 1 | 1.20e5 | 7109 | inactive |
| shams | 1 | 1.12e5 | 5524 | inactive |
| osk (oskar) | 1 | 62017 | 3464 | inactive |
| CG17780 | 1 | 1.05e5 | 5671 | inactive |
| Jhbp14 (Juvenile hormone binding protein 14) | 1 | 99587 | 4378 | inactive |
| CG10730 | 1 | 95336 | 4631 | inactive |
| fipi (factor of interpulse interval) | 1 | 1.27e5 | 5155 | inactive |
| zye | 1 | 1.50e5 | 7258 | inactive |
| CG31760 | 1 | 1.11e5 | 4371 | inactive |
| PolD3 (DNA polymerase delta subunit 3) | 1 | 82146 | 3495 | inactive |
| Or74a (Odorant receptor 74a) | 1 | 1.63e5 | 8765 | inactive |
| RhoGAP54D (Rho GTPase activating protein at 54D) | 1 | 1.38e5 | 4762 | inactive |
| Pex23 (Peroxin 23) | 1 | 70136 | 3673 | inactive |
| Pex23 (Peroxin 23) | 2 | 1.22e5 | 6238 | inactive |
| Oseg5 (Outer segment 5) | 1 | 94318 | 4214 | inactive |
| CG40045 | 1 | 71995 | 4195 | inactive |
| CG33095 | 1 | 1.17e5 | 6257 | inactive |
| CG3124 | 1 | 87683 | 3974 | inactive |
| Jon74E (Jonah 74E) | 1 | 1.59e5 | 6974 | inactive |
| CG1416 | 1 | 68998 | 3169 | inactive |
| CG32195 | 1 | 1.36e5 | 4140 | inactive |
| Lk6 (Lk6 kinase) | 1 | 80770 | 2860 | inactive |
| Lk6 (Lk6 kinase) | 2 | 65192 | 3270 | inactive |
| CG14645 | 1 | 1.34e5 | 6570 | inactive |
| SdhA (Succinate dehydrogenase, subunit A (flavoprotein)) | 1 | 93333 | 4041 | inactive |
| UK114 | 1 | 97816 | 4508 | inactive |
| CG8191 | 1 | 1.45e5 | 5851 | inactive |
| snRNP-U1-70K (small ribonucleoprotein particle U1 subunit 70K) | 1 | 1.46e5 | 5374 | inactive |
| Tmf (TATA element modulatory factor) | 1 | 47919 | 3268 | inactive |
| CG12567 | 1 | 1.28e5 | 6835 | inactive |
| Iswi (Imitation SWI) | 1 | 88877 | 4416 | inactive |
| CG3880 | 1 | 1.09e5 | 4545 | inactive |
| Acox57D-d (acyl-Coenzyme A oxidase at 57D distal) | 1 | 83998 | 3554 | inactive |
| CG13026 | 1 | 1.77e5 | 10123 | inactive |
| Srp54k (Signal recognition particle 54k) | 1 | 96457 | 4340 | inactive |
| CG3732 | 1 | 94800 | 3719 | inactive |
| CG42582 (retired record) | 1 | 85620 | 2756 | inactive |
| Idgf1 (Imaginal disc growth factor 1) | 1 | 88223 | 3288 | inactive |
| Cdc6 (Cell division cycle 6) | 1 | 1.03e5 | 156 | active |
| aub (aubergine) | 1 | 93214 | 3694 | inactive |
| CG11560 | 1 | 82857 | 3878 | inactive |
| AMPKalpha (AMP-activated protein kinase alpha subunit) | 1 | 1592 | 872 | inactive |
| Shark (SH2 ankyrin repeat kinase) | 1 | 74295 | 2944 | inactive |
| p53 | 1 | 73140 | 3359 | inactive |
| Tg (Transglutaminase) | 1 | 1.55e5 | 5048 | inactive |
| Gmap (Golgi microtubule-associated protein) | 1 | 8034 | 800 | inactive |
| Gmap (Golgi microtubule-associated protein) | 2 | 1.41e5 | 6161 | inactive |
| CG30148 | 1 | 54048 | 3540 | inactive |
| CG1737 | 1 | 46006 | 3129 | inactive |
| Top3alpha (Topoisomerase 3alpha) | 1 | 98390 | 3911 | inactive |
| eIF3f1 (eukaryotic translation initiation factor 3 subunit f1) | 1 | 92036 | 6350 | inactive |
| CG3515 | 1 | 1.56e5 | 5432 | inactive |
| Gnf1 (Germ line transcription factor 1) | 1 | 96504 | 5422 | inactive |
| CG5355 | 1 | 80810 | 4128 | inactive |
| CG34459 | 1 | 1.56e5 | 5221 | inactive |
| alpha-Est10 (alpha-Esterase-10) | 1 | 1.27e5 | 5808 | inactive |
| ninaC (neither inactivation nor afterpotential C) | 1 | 1.00e5 | 3941 | inactive |
| CG10950 | 1 | 1.49e5 | 5060 | inactive |
| CG3713 | 1 | 53555 | 3456 | inactive |
| CG32026 | 1 | 1.30e5 | 4528 | inactive |
| CG15332 | 1 | 1.11e5 | 4650 | inactive |
| Vha16-5 (Vacuolar H[+] ATPase 16kD subunit 5) | 1 | 1.73e5 | 5501 | inactive |
| Obp58c (Odorant-binding protein 58c) | 1 | 1.05e5 | 4688 | inactive |
| CG10512 | 1 | 1.33e5 | 6317 | inactive |
| EMC6 (ER membrane protein complex subunit 6) | 1 | 99853 | 6072 | inactive |
| CG13445 | 1 | 1.72e5 | 8378 | inactive |
| CG13616 | 1 | 95405 | 6502 | inactive |
| Nmdmc (NAD-dependent methylenetetrahydrofolate dehydrogenase) | 1 | 67688 | 3497 | inactive |
| PGRP-SD (Peptidoglycan recognition protein SD) | 1 | 1.03e5 | 4157 | inactive |
| CG12576 | 1 | 1.36e5 | 5364 | inactive |
| gNacalpha | 1 | 1.59e5 | 6125 | inactive |
| ATP7 | 1 | 1.35e5 | 5658 | inactive |
| Epac (Exchange protein directly activated by cAMP) | 1 | 49888 | 3409 | inactive |
| Epac (Exchange protein directly activated by cAMP) | 2 | 70389 | 3397 | inactive |
| Epac (Exchange protein directly activated by cAMP) | 3 | 1.07e5 | 4219 | inactive |
| Pgant5 (Polypeptide N-Acetylgalactosaminyltransferase 5) | 1 | 81550 | 2939 | inactive |
| tna (tonalli) | 1 | 1.36e5 | 5113 | inactive |
| tna (tonalli) | 2 | 1.09e5 | 5115 | inactive |
| CG9967 | 1 | 70477 | 3046 | inactive |
| hlk (hulk) | 1 | 98309 | 3344 | inactive |
| hlk (hulk) | 2 | 98907 | 3975 | inactive |

Individual results from the entries so far.
Shark (SH2 ankyrin repeat kinase), E2F firefly, rep 1: 74295
Value for Epac (Exchange protein directly activated by cAMP) #3 in “E2F firefly, rep 1”: 1.07e5
Result of ninaC (neither inactivation nor afterpotential C) in “E2F firefly, rep 1”: 1.00e5
Entry of Pgant5 (Polypeptide N-Acetylgalactosaminyltransferase 5) under “Renilla normaliser, rep 1”: 2939
aub (aubergine), activity call = inactive
For “activity call”, shams reads inactive
